{"sequences": {"note": "Sequences of proteins named here, by UniProt entry; tags and fusion partners are left off. Residues count along the entry.", "UniProt Q9IJX4, residues 1-166": "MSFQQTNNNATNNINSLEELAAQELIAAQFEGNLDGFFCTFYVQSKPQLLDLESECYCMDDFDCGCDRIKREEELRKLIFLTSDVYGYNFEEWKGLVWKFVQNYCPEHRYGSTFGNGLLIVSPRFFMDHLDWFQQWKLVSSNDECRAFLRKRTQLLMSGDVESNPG"}, "source": "paper PMC9746944", "biological_target": "3XFLAG tagged-Nup358 (Drosophila Nup358/RanBP2, transcript variant B) (Drosophila)", "test": "co-IP; FLAG-Nup358 as bait: mouse monoclonal FLAG antibody on Protein A/G magnetic beads (Pierce MS-Compatible Magnetic IP Kit), 1 mg total protein of S2 cell lysate, 4°C; immunoblot for CrPV-1A", "note": "No constants are given. Whether binding was seen depends on the method and setting. Binding seen in cells or lysates may run through a third protein. Some binding calls cover weakened binding; strength is not graded here."}
{"substance": "Cricket paralysis virus 1A protein (CrPV-1A), wild type (from UniProt Q9IJX4 1-166)", "values": [{"measurement": "binding", "value": "binds"}]}
